# Changes are numbered by the printed parent chain. These are yes or no findings as the source states them, for the method shown. Binding seen in cells or lysates may run through a third protein. Some binding calls cover weakened binding; strength is not graded here. Where a sequence is shown, tags or fusion partners need not be part of it.
# T1: MARCH6 C9A-HA (catalytically inactive MARCH6) (human) (UniProt O60337)
# T1 sequence: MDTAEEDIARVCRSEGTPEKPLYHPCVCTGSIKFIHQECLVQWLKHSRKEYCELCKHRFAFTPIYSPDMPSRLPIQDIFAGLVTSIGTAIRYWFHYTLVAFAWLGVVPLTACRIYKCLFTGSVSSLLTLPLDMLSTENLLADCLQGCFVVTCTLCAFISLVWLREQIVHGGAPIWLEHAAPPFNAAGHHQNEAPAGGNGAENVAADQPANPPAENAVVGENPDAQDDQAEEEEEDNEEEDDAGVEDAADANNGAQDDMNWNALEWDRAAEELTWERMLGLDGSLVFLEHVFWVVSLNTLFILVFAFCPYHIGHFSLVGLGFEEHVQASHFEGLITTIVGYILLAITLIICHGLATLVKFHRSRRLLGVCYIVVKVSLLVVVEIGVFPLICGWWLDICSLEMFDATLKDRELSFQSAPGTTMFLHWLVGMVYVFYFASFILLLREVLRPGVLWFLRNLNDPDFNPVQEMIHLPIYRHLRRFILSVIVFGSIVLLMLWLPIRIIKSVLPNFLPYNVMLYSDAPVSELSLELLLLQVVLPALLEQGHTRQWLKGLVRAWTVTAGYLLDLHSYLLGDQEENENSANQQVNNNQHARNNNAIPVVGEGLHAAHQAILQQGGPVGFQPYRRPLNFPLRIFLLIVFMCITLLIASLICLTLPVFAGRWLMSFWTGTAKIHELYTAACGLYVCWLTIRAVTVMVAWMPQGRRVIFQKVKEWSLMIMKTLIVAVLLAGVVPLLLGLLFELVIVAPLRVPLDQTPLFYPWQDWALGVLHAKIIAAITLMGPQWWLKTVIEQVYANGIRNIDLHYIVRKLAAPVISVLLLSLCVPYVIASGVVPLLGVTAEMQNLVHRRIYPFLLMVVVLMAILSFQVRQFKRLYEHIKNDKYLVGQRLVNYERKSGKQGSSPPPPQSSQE
# T2: HA-MARCH6 (wild type) (human) (UniProt O60337)
# T2 sequence: T1 sequence with A9C
# B1: FLAG-UBE2J2 (enzyme, UniProt Q8N2K1 1-259)
# chain: MSSTSSKRAPTTATQRLKQDYLRIKKDPVPYICAEPLPSNILEWHYVVRGPEMTPYEGGYYHGKLIFPREFPFKPPSIYMITPNGRFKCNTRLCLSITDFHPDTWNPAWSVSTILTGLLSFMVEKGPTLGSIETSDFTKRQLAVQSLAFNLKDKVFCELFPEVVEEIKQKQKAQDELSSRPQTLPLPDVVPDGETHLVQNGIQLLNGHAPGAVPNLAGLQQANRHHGLLGGALANLFVIVGFAAFAYTVKYVLRSIAQE
# B2: signal peptide peptidase (SPP), endogenous (enzyme, UniProt Q8TCT9 1-377)
# chain: MDSALSDPHNGSAEAGGPTNSTTRPPSTPEGIALAYGSLLLMALLPIFFGALRSVRCARGKNASDMPETITSRDAARFPIIASCTLLGLYLFFKIFSQEYINLLLSMYFFVLGILALSHTISPFMNKFFPASFPNRQYQLLFTQGSGENKEEIINYEFDTKDLVCLGLSSIVGVWYLLRKHWIANNLFGLAFSLNGVELLHLNNVSTGCILLGGLFIYDVFWVFGTNVMVTVAKSFEAPIKLVFPQDLLEKGLEANNFAMLGLGDVVIPGIFIALLLRFDISLKKNTHTYFYTSFAAYIFGLGLTIFIMHIFKHAQPALLYLVPACIGFPVLVALAKGEVTEMFSYEESNPKDPAAVTESKEGTEASASKGLEKKEK
# What was measured:
# [1] = target: T1, MARCH6 C9A-HA (catalytically inactive MARCH6) (human); experiment: co-IP; HeLa cells stably expressing MARCH6 C9A-HA with or without FLAG-UBE2J2; lysed in 1% digitonin, immunoprecipitated with an HA antibody, washed with 1% Triton X-100; blot for FLAG-UBE2J2
# [2] = target: T1, MARCH6 C9A-HA (catalytically inactive MARCH6) (human); experiment: co-IP; immunoprecipitation of HA-tagged MARCH6 or MARCH6 C9A, blot for endogenous SPP (Appendix Fig S6A and B; legend not shown)
# [3] = target: T2, HA-MARCH6 (wild type) (human); experiment: as above
Binder,binding [1],binding [2],binding [3]
B1,binds,,
B2,,binds,binds

# Source: article PMC5934766
